Data taken from ChEMBL document CHEMBL3988442, “University of Dundee, Small-Polar-MMV Screening Library” (2021).

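Assay of Toxoplasma gondii numbers, read through their beta-galactosidase reporter with a colour substrate. Tested at 50 µM. The record gives no direction; the compounds picked for IC50 retests had high values, so higher reads as fewer parasites. Of about 18,000 compounds tested this way, about 170 (0.94%) reached 50% or more in at least one test.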

The filed quantity is “Percent Effect” (%).
The record does not define 0% and 100%; most values in the screen are far below 50% and negative numbers occur (in some assays of this library far below -100).
This is an unselected part of the compounds tested.

SMILES	Percent Effect
Cc1cc(CNC(=O)C2CCCNC2)n(C)n1 (centres undefined)	-14.19
Cc1ccc(OCCOC(=O)N(C)C)nc1	-8.707
CC(C)[C@H](N)C(=O)N1CCN(C(=O)N(C)C)CC1	-2.972
Cc1noc(OCCOCC2CCCO2)n1 (centres undefined)	-24.13
C[C@H](O)CNC(=O)NCC1CCCN1C1CCCCC1 (some centres undefined)	24.57
Cc1cc(Br)ccc1OCCNCCN	2.67
Cn1cncc1C(N)CO (centres undefined)	-9.765
CCC1C(=O)NCCN1Cc1coc(C(C)C)n1 (centres undefined)	20.46
CN1CC(C#N)CC1=O (centres undefined)	-6.987
O=c1[nH]c2ccc(NCc3ccncc3)cc2[nH]1	-1.515
CC1CCN(CC(N)=O)CC1	-12.83
Cc1cc(C)c(CNC(=O)CCNS(C)(=O)=O)cn1	10.52
CS(=O)(=O)Nc1cccc(C(=O)Nc2ccccc2)c1	5.214
N[C@@H]1C[C@H]1c1cccc(F)c1	-10.96
CNC(=O)C(NC(=O)C1CCC1)c1ccccc1 (centres undefined)	-8.909
CN(C)S(=O)(=O)N1CCCCC1CN (centres undefined)	-10.87
CC(O)CN(C)c1ncc(Br)cn1 (centres undefined)	17.97
Cc1cnccc1CN(C)C(=O)Cc1ccccn1	-12.13
CC(CN)N(C)C(=O)c1ccccc1Br (centres undefined)	-3.864
OC1CN(Cc2ccccc2)C1	-69.33
COc1ncc(C(=O)N[C@@H]2COCC[C@H]2O)cn1	27.5
CC(C)(C)C(=O)Nc1cncc(Br)c1O	33.32
OCC1(CNC2CCCSC2)CCOCC1 (centres undefined)	0.7525
CC1CCCCN1CCCNc1ccc2nnnn2n1 (centres undefined)	4.885
CC(CNC(=O)C1=NN(C)C(=O)CC1)N1CCOCC1 (centres undefined)	-13.43
CNCCNC(=O)C(C)C	-4.128
Cn1cc(NC(=O)CSc2nccn2C)cn1	23.13
NCC1(O)Cc2ccccc2C1	-3.788
CC(O)(CNc1ncccc1F)C1CCCC1 (centres undefined)	-1.202
OC1(Cn2ccnn2)CCNC1 (centres undefined)	1.768
CCCc1nc(CNC(=O)Cc2ccccn2)cs1	-7.247
O=C(Cc1ccccc1Cl)NC1CCCNC1 (centres undefined)	5.036
CC(C)N(CC(N)=O)CC(=O)N(C1CCCC1)C1CC1	-6.831
CCc1nc(CCNC(=O)CN2CCC(O)CC2)cs1	10.33
CC(=O)CN1CCCc2ccccc2C1	-0.1083
CS(=O)(=O)CCC(=O)Nc1cccc(F)c1C#N	4.846
COc1ccc(F)c(-c2cccc(C(=O)N(C)C)n2)c1	-15.72
Cc1cccc(OCC(O)CNC(C)(C)CO)c1C (centres undefined)	11.36
CCCN(C)C(=O)Cn1ccc(=O)[nH]c1=O	11.82
O=C(c1cccnc1)N1CCC(Nc2cccnc2)C1 (centres undefined)	-6.843
CC(C)Sc1nc(-c2ccccn2)no1	6.168
NC(=O)CN1CCCCCC1	3.35
CC(C)(C)OC(=O)N1CCOCC1c1nnco1 (centres undefined)	-13.35
Cc1nn(C(C)C)c(C)c1NC(=O)C1CCCO1 (centres undefined)	-18.06
Nc1nc(-c2ccc(S(N)(=O)=O)cc2)cs1	6.797
Cc1cccc(NC(=O)c2cccnc2O)n1	2.331
Cc1cccc(C(C)(C)N)c1	-5.646
CC(C)c1cccc(S(=O)(=O)NCCCN)c1	-6.226
NCc1ccc(C(=O)NCCN2CCCC2)cc1	26.08
CC(=O)NCCS(=O)(=O)N1CCc2ccccc21	-1.268
CCC(CO)NC(=O)c1ccc(F)cc1C(F)(F)F (centres undefined)	-5.761
O=C(N[C@@H]1CCCNC1)c1nc2ccccn2c1F	-0.4525
CN1C(=O)C(C)(C)c2cc(NC(=O)C3CC3)ccc21	-13.04
C=C(C(=O)OC)C(O)c1ccc(F)c(F)c1 (centres undefined)	1.004
Cc1n[nH]cc1CNC(C)CO (centres undefined)	-9.226
C[C@@]1(O)CCN(C(=O)c2cnc(C3CC3)nc2)C[C@@H]1O	2.648
Cc1cc(NC(=O)CN2CCCC2)n(C)n1	23.06
c1ccc(Oc2ncccn2)cc1	10.4
CN1CCCC(NC(=O)c2ccc(=O)n(C)c2)C1 (centres undefined)	-2.979
OCC(CO)NC1CCc2c(Cl)cc(Cl)cc21 (centres undefined)	-6.903
CC(C)c1nc(C2(N)CCCC2)no1	-10.63
CC1=NN(C(=O)Cn2cc(C)cn2)C(O)(C(F)F)C1 (centres undefined)	-46.57
CN(C)c1ccc(CNCCSc2nnnn2C)cc1	9.072
CC1COc2ccccc2N1C(=O)c1cnsn1 (centres undefined)	24.86
CN(C)[C@@H]1C[C@@H](CO)N(C(=O)c2ccc(Cl)s2)C1	15.77
CC(C)=CCCNC(=O)N1CCC[C@H]1CO	-2.164
N#Cc1ccc(S(=O)(=O)N2CCCO2)c(Cl)c1	6.897
Cc1ncc2c(n1)CCN(Cc1ncc(Cl)n1C)C2	5.061
N#CCCCn1ccccc1=O	-0.4771
CN(C)Cc1ccc(CN)s1	9.91
Cc1cccc(C(=O)Nc2nnn(C)n2)c1	-0.6846
COCCN(C)C(=O)Nc1ncc(C)s1	-2.112
OCC1CNc2c(F)cccc2C1 (centres undefined)	-9.881
CCc1ccc(CN(C)C(=O)COC(C)C)nc1	-5.885
Cc1noc(C)c1CN1CCC(CC(N)=O)CC1	-18.09
O=C(CCCOc1ccccc1)Nc1nnc[nH]1	-3.457
CCc1nccc(CN2CCC(NC(C)=O)C2)n1 (centres undefined)	10.69
CCSCC(=O)NCc1cccc(C(=O)NC2CC2)c1	2.002
CCC(NC(=O)NCCCOC)C(C)C (centres undefined)	-2.834
Cn1ccnc1N1CCN(c2ccc(C#N)cn2)CC1	-1.308
CNCC(=O)N1CCC(Cc2cccc(C(N)=O)c2)C1 (centres undefined)	-15.57
CNS(=O)(=O)c1ccc(F)c(C)c1	-6.237
COCc1noc(CNc2cc(C)nc(N)n2)n1	-1.401
CCC(=O)NCCNc1ccc2ccccc2n1	3.351
CNC(=O)C1CCN(Cc2c(C)noc2C)CC1	5.364
CN(CCOCc1ccccc1)C(=O)c1cnc[nH]1	-18.16
Cc1c(Cl)c(C(=O)N2CCCCC2)nn1C	24.41
CN(CC=Cc1ccc(F)cc1)CC(N)=O	-4.965
CC(C)Cc1cc(C(=O)N2CC[C@H](CO)[C@H](O)C2)on1	-23.89
O=C(c1cncc(F)c1)N1CC(N2CCCCC2)C1	-14.96
CN(Cc1cccc(C#N)c1)C(=O)C1CC1	6.192
c1ccc(N2CCCNCC2)nc1	2.86
CC(C)CCNC(=O)Nc1ccc(-n2cccn2)nc1	5.567
COCCN(C(=O)c1cccc(C)c1C)C(C)C(N)=O (centres undefined)	17.42
COC(=O)CC(NC(=O)c1cnccn1)c1cccs1 (centres undefined)	-24.66

Some entries from above, unchanged:

| SMILES | Percent Effect |
|---|---|
| `Cc1cccc(C(=O)Nc2nnn(C)n2)c1` | -0.6846 |
| `O=C(N[C@@H]1CCCNC1)c1nc2ccccn2c1F` | -0.4525 |
| `NCC1(O)Cc2ccccc2C1` | -3.788 |
| `Cc1ncc2c(n1)CCN(Cc1ncc(Cl)n1C)C2` | 5.061 |
| `COc1ccc(F)c(-c2cccc(C(=O)N(C)C)n2)c1` | -15.72 |
| `CNCCNC(=O)C(C)C` | -4.128 |